Assay results: paper PMC12805866
These are yes or no findings as the source states them, for the method shown. In cells and extracts the contact can be indirect. Some entries that bind do so weakly or less than the wild type.

Protein sequences, listed by entry. Tags and fused reporters are not part of them. Residues count along the entry.
UniProt P02545, residues 1-646: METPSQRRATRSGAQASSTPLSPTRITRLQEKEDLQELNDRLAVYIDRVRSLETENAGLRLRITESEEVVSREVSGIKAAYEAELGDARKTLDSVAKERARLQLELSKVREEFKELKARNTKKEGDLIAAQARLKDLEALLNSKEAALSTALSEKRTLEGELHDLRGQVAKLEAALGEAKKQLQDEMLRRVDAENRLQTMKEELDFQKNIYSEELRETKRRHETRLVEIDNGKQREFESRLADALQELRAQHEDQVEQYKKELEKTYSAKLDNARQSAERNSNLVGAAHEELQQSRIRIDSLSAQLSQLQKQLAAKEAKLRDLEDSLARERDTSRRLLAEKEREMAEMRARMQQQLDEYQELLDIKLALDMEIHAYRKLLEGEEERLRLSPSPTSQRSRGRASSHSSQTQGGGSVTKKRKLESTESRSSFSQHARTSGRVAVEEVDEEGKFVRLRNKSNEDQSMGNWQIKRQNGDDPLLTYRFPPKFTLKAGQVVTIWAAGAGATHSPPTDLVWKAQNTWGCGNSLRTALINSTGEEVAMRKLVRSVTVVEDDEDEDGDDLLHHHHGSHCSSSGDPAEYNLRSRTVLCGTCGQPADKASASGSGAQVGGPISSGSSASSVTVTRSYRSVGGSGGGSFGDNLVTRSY
UniProt P09874: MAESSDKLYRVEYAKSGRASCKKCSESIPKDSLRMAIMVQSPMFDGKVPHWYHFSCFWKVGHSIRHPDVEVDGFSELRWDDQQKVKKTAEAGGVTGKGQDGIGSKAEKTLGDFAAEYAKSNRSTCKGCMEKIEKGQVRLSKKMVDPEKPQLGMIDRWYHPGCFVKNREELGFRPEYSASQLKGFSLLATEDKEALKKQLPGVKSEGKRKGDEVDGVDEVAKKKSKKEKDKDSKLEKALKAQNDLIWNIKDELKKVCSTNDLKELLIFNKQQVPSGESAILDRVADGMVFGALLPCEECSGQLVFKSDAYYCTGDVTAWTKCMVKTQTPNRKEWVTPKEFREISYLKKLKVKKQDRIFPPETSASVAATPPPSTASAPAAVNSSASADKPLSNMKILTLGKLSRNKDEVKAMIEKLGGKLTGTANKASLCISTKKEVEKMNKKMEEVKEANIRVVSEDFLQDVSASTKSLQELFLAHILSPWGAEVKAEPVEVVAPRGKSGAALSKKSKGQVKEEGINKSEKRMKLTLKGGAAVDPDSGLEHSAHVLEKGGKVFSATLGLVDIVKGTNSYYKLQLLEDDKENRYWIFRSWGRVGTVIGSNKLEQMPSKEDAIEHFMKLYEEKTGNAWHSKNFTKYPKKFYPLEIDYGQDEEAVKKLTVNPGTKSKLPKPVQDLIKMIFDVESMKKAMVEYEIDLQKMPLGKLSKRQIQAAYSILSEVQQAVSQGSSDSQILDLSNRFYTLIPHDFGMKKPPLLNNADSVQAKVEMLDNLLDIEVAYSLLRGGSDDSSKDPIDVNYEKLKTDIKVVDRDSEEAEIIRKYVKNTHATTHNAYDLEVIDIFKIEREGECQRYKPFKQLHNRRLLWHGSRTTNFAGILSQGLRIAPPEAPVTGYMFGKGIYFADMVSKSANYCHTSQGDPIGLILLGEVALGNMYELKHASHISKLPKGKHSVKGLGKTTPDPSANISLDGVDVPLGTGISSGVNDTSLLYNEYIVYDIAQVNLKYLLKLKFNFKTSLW

Molecular target: Lamin A/C (human (endogenous in human cell lines; line of the IP not stated)) (UniProt P02545)
Experiment: co-IP; endogenous Lamin A/C precipitated with anti-Lamin A/C (E-1) antibody (5 ug/IP) and protein G Dynabeads from 1 mg soluble extract; IP buffer 20 mM Tris-HCl pH 7.5, 150 mM NaCl, 2 mM EGTA, 2 mM MgCl2, 0.5% NP-40, 1 mM DTT, with PARGi 1 uM and PARPi 10 uM; optional benzonase; overnight at 4 C; immunoblot; cells untreated or given various treatments interfering with fork progression (interaction not detectably altered)

## PARP1 (from UniProt P09874 1-1014) (enzyme)
  binding: binds
